From PubChem BioAssay AID504834 (National Center for Advancing Translational Sciences (NCATS), 2011)
In all, about 320,000 compounds went through this assay and about 22,000 (6.9%) were called active. Inconclusive means that the source gave no clear call. Such entries were picked first, then a sample of the others. Calls come from the whole dose curve; as a rule, active = well fitted inhibition curve with a large enough effect; inconclusive = small, poorly fitted or top-dose-only effect, or another doubt; inactive = no such curve, though single readings can be large or run the other way. Potencies of inconclusive entries are doubtful fits and often do not repeat.

Test: Primary qHTS for delayed death inhibitors of the malarial parasite plastid, 96 hour incubation
Settings: P. falciparum luciferase reporter growth; series mostly up to 28.7 µM
How it was run: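 P. falciparum expressing integrated firefly luciferase, in erythrocytes at 2% hematocrit, 0.05% parasitemia, incubated with compounds 96 h at 37 C, 5% CO2. Growth inhibition read as loss of luminescence; two-generation exposure targets delayed-death apicoplast inhibitors.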
Potency is the fitted concentration of half-maximal effect.

Which Potency does the source give for `CC(C)c1c(C(=O)N/N=C/C2CC=CCC2)nnn1-c1nonc1N` (configuration not stated) here?
Its Potency is “inactive”.

For `CCC(C(=O)NC1CC1)n1nc(C)c2c(C)n(-c3ccccc3)nc2c1=O` (configuration not stated), which Potency is on record?
The Potency was inconclusive: 0.0041 µM [inhibitor, full curve, poor fit].

Which Potency does the source give for `CC(NC(=O)OC1CCCCC1)N1C(=O)C2C3C=CC(C3)C2C1=O` (configuration not stated) here?
Its Potency is inconclusive: 11.7 µM [inhibitor, single point].

For `O=C(/C=C/c1ccccc1)NC(=O)c1ccccc1O`, which Potency is on record?
Its Potency is active: 1.65 µM.

With `O=c1c2ccccc2nc(COc2ccccc2)n1/N=C/c1cn[nH]c1-c1ccccc1` as the compound, how does the Potency read?
Its Potency is active: 10.4 µM.

With `O=C(Nc1ccc(Cl)cc1)N1CCN(c2ccccc2)CC1` as the compound, how does the Potency read?
Its Potency is active: 11.7 µM.

For `Cc1cccc(C)c1NC(=S)N/N=C/c1ccc(OCCC(C)C)cc1`, which Potency is on record?
Its Potency is active: 3.29 µM.

For `CNC(=O)Oc1ccc(-c2cn3cc(C)ccc3n2)cc1`, which Potency is on record?
Its Potency is inconclusive: 18.5 µM [inhibitor, single point].

Which Potency does the source give for `O=C1c2oc3ccccc3c(=O)c2C(c2cccc(F)c2)N1CCCO` (configuration not stated) here?
The Potency was inconclusive: 4.15 µM [inhibitor, partial curve].

Which Potency does the source give for `O=C(NCCN1CCCC1)c1ccc2c(c1)N(Cc1ccc(F)cc1)C(=O)c1ccccc1S2=O` (configuration not stated) here?
The Potency was inconclusive: 13.1 µM [inhibitor, single point].

With `O=C(Nc1cccnc1)c1sc(Nc2ccccc2)nc1-c1ccccc1` as the compound, how does the Potency read?
Its Potency is “inactive”.

For `NC(=O)CC(NC(=O)Cc1cccc2ccccc12)c1ccc(N2CCN(c3ccccc3)CC2)c([N+](=O)[O-])c1` (configuration not stated), which Potency is on record?
The Potency was inconclusive: 18.5 µM [inhibitor, single point].

With `COc1ccc(N2C(=O)CC(N(CCc3ccccc3)C(=O)/C=C/C(=O)O)C2=O)cc1` (configuration not stated) as the compound, how does the Potency read?
Its Potency is inconclusive: 18.5 µM [inhibitor, single point].

Which Potency does the source give for `CCCCCNC(=O)C1CC(=O)OC12CCCCC2` (configuration not stated) here?
The Potency was inconclusive: 3.29 µM [inhibitor, partial curve].

For `COc1ccc(CCNC(=O)NC2CCCCC2)cc1`, which Potency is on record?
Its Potency is “inactive”.

With `Nc1c(C(=O)NCc2ccco2)c2nc3ccccc3nc2n1Cc1ccc(F)cc1` as the compound, how does the Potency read?
The Potency was inconclusive: 18.5 µM [inhibitor, single point].

Which Potency does the source give for `CC(On1c(-c2ccccc2)nc2ccc(Cl)cc21)C(=O)O` (configuration not stated) here?
The Potency was “inactive”.

Which Potency does the source give for `Cc1ccc(S(=O)(=O)CCN2C=CC(C(F)(F)F)=NCC2)cc1` here?
Its Potency is inconclusive: 0.465 µM [inhibitor, full curve, poor fit].

For `CCN(CC)c1ccc(N=Cc2c(O)n(Cc3ccccc3)c(=O)[nH]c2=O)cc1`, which Potency is on record?
The Potency was inconclusive: 11.7 µM [inhibitor, partial curve].

With `COc1ccccc1CNC(=O)CN1CCC(NC(=O)c2ccccc2F)CC1` as the compound, how does the Potency read?
Its Potency is inconclusive: 0.738 µM [inhibitor, full curve].

Which Potency does the source give for `COc1ccc(S(=O)(=O)NCCSC(C)(C)C)cc1` here?
Its Potency is inconclusive: 5.86 µM [inhibitor, partial curve, poor fit].

With `O=C(CNC(=O)C(c1ccccc1)c1ccccc1)OCC(=O)c1cccs1` as the compound, how does the Potency read?
Its Potency is inconclusive: 0.0104 µM [inhibitor, full curve, poor fit].

For `CCOC(=O)N1CCN(C(=O)CC(C)S(=O)(=O)c2cc3c(cc2C)NC(=O)CO3)CC1` (configuration not stated), which Potency is on record?
Its Potency is inconclusive: 0.657 µM [inhibitor, full curve, poor fit].

Which Potency does the source give for `O=S(=O)(c1cccs1)N1CCN(c2ncccn2)CC1` here?
Its Potency is “inactive”.

For `COc1ccccc1C(c1nnnn1C(C)C)N1CCN(C(=O)c2ccco2)CC1` (configuration not stated), which Potency is on record?
The Potency was inconclusive: 13.1 µM [inhibitor, partial curve].

Which Potency does the source give for `COc1cccc(-c2ccc(=O)n(CC(=O)Nc3cc4c(cc3NC(C)=O)OCCO4)n2)c1` here?
The Potency was “inactive”.

For `CC(C)(C)c1ccc(-n2ncc3c2CCCC3NC(=O)CCCn2cncn2)cc1` (configuration not stated), which Potency is on record?
Its Potency is “inactive”.

Which Potency does the source give for `Cc1cccc(NC(=S)N/N=C/c2ccc(Cl)c([N+](=O)[O-])c2)c1` here?
The Potency was “inactive”.

For `CCCc1ccc(C(=O)NC(=O)c2ccccc2O)cc1`, which Potency is on record?
The Potency was active: 0.37 µM.

With `CCCNC(=O)C1CC(c2cccc(F)c2)=NO1` (configuration not stated) as the compound, how does the Potency read?
Its Potency is “inactive”.

For `Cc1nn(C)c(C(=O)N/N=C/c2ccc(C(F)(F)F)cc2)c1[N+](=O)[O-]`, which Potency is on record?
Its Potency is “inactive”.

Which Potency does the source give for `O=C(CSc1nnc(-c2ccc(OC(F)F)cc2)o1)N1CCOCC1` here?
The Potency was inconclusive: 10.4 µM [inhibitor, single point].

Which Potency does the source give for `COc1ccc(NC(=O)c2cnc(SC)nc2C)c(OC)c1` here?
The Potency was “inactive”.

With `CCCC1(C(=O)OC)NC(c2ccco2)C2C(=O)N(c3ccc(C)cc3)C(=O)C21` (configuration not stated) as the compound, how does the Potency read?
The Potency was inconclusive: 2.94 µM [inhibitor, partial curve, poor fit].

For `CC(=NCCc1ccccc1)C1=C(O)CSC1=O`, which Potency is on record?
Its Potency is “inactive”.

Which Potency does the source give for `Cc1coc2c1c(C)cc1oc(=O)c(CC(=O)NCC(=O)N[C@H](C(=O)O)C(C)C)c(C)c12` here?
The Potency was “inactive”.

Which Potency does the source give for `CC(=O)N[C@H]1[C@H](O[C@@H]2c3ccc(c(Cl)c3)Oc3cc4cc(c3O[C@@H]3O[C@H](CO)[C@@H](O)[C@H](O)C3C)Oc3ccc(cc3Cl)C[C@H]3NC(=O)[C@@H](N)c5ccc(O)c(c5)Oc5cc(O)cc(c5)[C@H](NC3=O)C(=O)N[C@H]4C(=O)N[C@H]3C(=O)N[C@@H]2C(=O)N[C@@H](C(=O)O)c2cc(O)cc(O[C@H]4O[C@H](CO)[C@@H](O)C(O)[C@@H]4O)c2-c2cc3ccc2O)O[C@H](CO)[C@@H](O)[C@@H]1O` (some centres not stated) here?
Its Potency is inconclusive: 8.49 µM [inhibitor, partial curve].

For `CC(C)(C)NC(=O)Cn1c(-c2nonc2N)nc2ccccc21`, which Potency is on record?
The Potency was “inactive”.

Which Potency does the source give for `CCC(C)(C)NC(=O)CN(Cc1cccs1)C(=O)C(=O)Nc1ccc2c(c1)OCCO2` here?
The Potency was inconclusive: 0.37 µM [inhibitor, partial curve, poor fit].

With `CC(C)[C@H](NC(=O)c1ccc(Cl)c([N+](=O)[O-])c1)C(=O)NCc1ccc(F)cc1` as the compound, how does the Potency read?
The Potency was inconclusive: 13.1 µM [inhibitor, single point].

With `CCN(CC)c1c([N+](=O)[O-])c(=O)oc2ccccc12` as the compound, how does the Potency read?
Its Potency is inconclusive: 2.08 µM [inhibitor, full curve].

With `COCCCNCCC(CCC(C)C)c1ccc2c(c1)OCO2` (configuration not stated) as the compound, how does the Potency read?
The Potency was inconclusive: 18.5 µM [inhibitor, single point].

With `CCOC(=O)CSc1nc2cccnc2n1C` as the compound, how does the Potency read?
Its Potency is inconclusive: 3.29 µM [inhibitor, full curve].

With `CCOC(=O)C1CCN(C(=O)/C(C)=C\c2ccccc2)CC1` as the compound, how does the Potency read?
Its Potency is inconclusive: 0.522 µM [inhibitor, full curve, poor fit].

Which Potency does the source give for `CCOC(=O)C1CCN(S(=O)(=O)c2cccc(-c3cn4cc(C)ccc4n3)c2)CC1` here?
The Potency was inconclusive: 18.5 µM [inhibitor, single point].

Which Potency does the source give for `O=C(C1CCN(Cc2cccs2)CC1)N1CCN(Cc2ccc3c(c2)OCO3)CC1` here?
Its Potency is “inactive”.

For `CCN1CCN(S(=O)(=O)c2ccc(Cl)c(C(=O)Nc3ccc(OC(F)F)cc3)c2)CC1`, which Potency is on record?
Its Potency is inconclusive: 10.4 µM [inhibitor, single point].

With `CCCCCCSc1nsc(NC(=O)CC(C)C)n1` as the compound, how does the Potency read?
Its Potency is inconclusive: 18.5 µM [inhibitor, single point].

Which Potency does the source give for `Cc1ccc(C)c(-c2cc(C(=O)NCc3cccs3)c3ccccc3n2)c1` here?
Its Potency is inconclusive: 18.5 µM [inhibitor, partial curve, poor fit].

Which Potency does the source give for `COc1cc(OC)cc(C(=O)Nc2nc(CC(=O)NC(C)c3ccccc3)cs2)c1` (configuration not stated) here?
The Potency was inconclusive: 18.5 µM [inhibitor, single point].

With `Cc1cccc(C)c1NCC(=O)N1CCN(Cc2ccccc2)CC1` as the compound, how does the Potency read?
Its Potency is “inactive”.

For `CC(OC(=O)C1CCN(S(=O)(=O)c2ccccc2C(F)(F)F)CC1)C(=O)N(C)Cc1ccccc1` (configuration not stated), which Potency is on record?
Its Potency is inconclusive: 7.38 µM [inhibitor, partial curve].

Which Potency does the source give for `CCOC(=O)c1cnc(-n2nc(C)cc2C)nc1N1CCOCC1` here?
Its Potency is inconclusive: 11.7 µM [inhibitor, partial curve, poor fit].

For `CC(=O)Nc1cc(-n2cnnn2)ccc1C`, which Potency is on record?
Its Potency is inconclusive: 1.31 µM [inhibitor, partial curve, poor fit].

For `CCC1(c2ccc(F)cc2)NC(=O)N(CC(=O)Nc2cc(S(=O)(=O)N(C)C)ccc2Cl)C1=O` (configuration not stated), which Potency is on record?
Its Potency is inconclusive: 1.31 µM [inhibitor, partial curve, poor fit].

With `O=C(COC(=O)c1cnccn1)Nc1ccc(Cl)cn1` as the compound, how does the Potency read?
The Potency was “inactive”.

For `Cc1ccc(CN2CCSc3ccc(C(=O)NC4CCCC4)cc32)cc1`, which Potency is on record?
The Potency was inconclusive: 13.1 µM [inhibitor, partial curve, poor fit].

For `O=C(Nc1ccc(Cl)c(S(=O)(=O)N2CCOCC2)c1)c1ccc2c(c1)OCCO2`, which Potency is on record?
The Potency was inconclusive: 0.0586 µM [inhibitor, full curve, poor fit].

With `O=C(O)CCc1ccc(-c2ccccc2)n1NC(=O)c1ccco1` as the compound, how does the Potency read?
The Potency was “inactive”.

For `O=C(CN1CCN(C/C=C/c2ccccc2)CC1)Nc1ccc(F)cc1F`, which Potency is on record?
Its Potency is inconclusive: 5.86 µM [inhibitor, partial curve, poor fit].

Which Potency does the source give for `CCc1ccc(C(=O)Cn2ncc(Cl)c(Cl)c2=O)cc1` here?
The Potency was “inactive”.

For `Cc1nnsc1-c1nc2ccccc2[nH]1`, which Potency is on record?
Its Potency is inconclusive: 14.7 µM [inhibitor, partial curve].

With `COc1ccc2nc(NC(=O)c3cccc(-c4cc5ccccc5oc4=O)c3)sc2c1` as the compound, how does the Potency read?
Its Potency is active: 4.65 µM.

Which Potency does the source give for `Cc1ccc(N(O)C(=O)NCCCCNC(=O)N(O)c2ccc(C)cc2)cc1` here?
Its Potency is “inactive”.

For `CCOC(=O)CCC(NC(=O)CC(=O)NC(CCC(=O)OCC)C(=O)OCC)C(=O)OCC` (configuration not stated), which Potency is on record?
Its Potency is “inactive”.

For `CCOC(=O)C1(Cc2ccccc2C)CCCN(C(=O)CCc2c(C)noc2C)C1` (configuration not stated), which Potency is on record?
Its Potency is active: 11.7 µM.

Which Potency does the source give for `Cc1noc(C)c1COc1ccc(C(=O)OCC(=O)N2c3ccccc3NC(=O)C2(C)C)cc1` here?
The Potency was inconclusive: 10.4 µM [inhibitor, partial curve, poor fit].
